In publication PMC10206803, “Structural insights into DNA recognition by the BEN domain of the transcription factor BANP”:

Experiments:
BANP BEN N269A (human) = target: T1, BANP BEN N269A (human) (UniProt Q8N9N5); assay: ITC; conditions: ITC: 150 mM NaCl, 20 mM Tris-HCl pH 7.5, with or without DTT, 25 C, 50-90 uM protein in cell, 1 mM DNA in syringe; recombinant protein; residues 208-347; protein details: His6-SUMO removed by TEV
T1 sequence (looked up): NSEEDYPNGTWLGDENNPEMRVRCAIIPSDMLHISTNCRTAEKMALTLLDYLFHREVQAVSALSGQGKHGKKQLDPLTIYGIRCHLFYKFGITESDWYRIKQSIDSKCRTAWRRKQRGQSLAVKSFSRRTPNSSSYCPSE

BANP BEN R316A (human) = target: T2, BANP BEN R316A (human) (UniProt Q8N9N5); assay: ITC; conditions: ITC: 150 mM NaCl, 20 mM Tris-HCl pH 7.5, with or without DTT, 25 C, 50-90 uM protein in cell, 1 mM DNA in syringe; recombinant protein; residues 208-347; protein details: His6-SUMO removed by TEV
T2 sequence (looked up): T1 sequence (looked up) with A62N, R109A

BANP BEN R320A (human) = target: T3, BANP BEN R320A (human) (UniProt Q8N9N5); assay: ITC; conditions: ITC: 150 mM NaCl, 20 mM Tris-HCl pH 7.5, with or without DTT, 25 C, 50-90 uM protein in cell, 1 mM DNA in syringe; recombinant protein; residues 208-347; protein details: His6-SUMO removed by TEV
T3 sequence (looked up): T1 sequence (looked up) with A62N, R113A

BANP BEN S313A (human) = target: T4, BANP BEN S313A (human) (UniProt Q8N9N5); assay: ITC; conditions: ITC: 150 mM NaCl, 20 mM Tris-HCl pH 7.5, with or without DTT, 25 C, 50-90 uM protein in cell, 1 mM DNA in syringe; recombinant protein; residues 208-347; protein details: His6-SUMO removed by TEV
T4 sequence (looked up): T1 sequence (looked up) with A62N, S106A

BEND6 BEN K265A (human) = target: T5, BEND6 BEN K265A (human) (UniProt Q5SZJ8); assay: fluorescence polarization; conditions: FP: 20 mM Tris-HCl pH 7.5, 150 mM NaCl, 1 mM DTT, 0.01% Triton X-100, 40 nM DNA; recombinant protein; residues 170-271; protein details: His6 removed by TEV; label: 5' FAM
T5 sequence (looked up): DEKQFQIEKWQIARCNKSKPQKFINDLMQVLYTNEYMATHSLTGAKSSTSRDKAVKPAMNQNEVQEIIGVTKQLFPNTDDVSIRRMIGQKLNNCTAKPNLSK

BEND6 BEN N261A (human) = target: T6, BEND6 BEN N261A (human) (UniProt Q5SZJ8); assay: fluorescence polarization; conditions: FP: 20 mM Tris-HCl pH 7.5, 150 mM NaCl, 1 mM DTT, 0.01% Triton X-100, 40 nM DNA; recombinant protein; residues 170-271; protein details: His6 removed by TEV; label: 5' FAM
T6 sequence (looked up): T5 sequence (looked up) with N92A, A96K

BEND6 BEN R254A (human) = target: T7, BEND6 BEN R254A (human) (UniProt Q5SZJ8); assay: fluorescence polarization; conditions: FP: 20 mM Tris-HCl pH 7.5, 150 mM NaCl, 1 mM DTT, 0.01% Triton X-100, 40 nM DNA; recombinant protein; residues 170-271; protein details: His6 removed by TEV; label: 5' FAM
T7 sequence (looked up): T5 sequence (looked up) with R85A, A96K

Measured: binding result

CTCTCGCGAGAG (double strand) [CGCG DNA]
binds more weakly: BANP BEN N269A (human) | BANP BEN R316A (human) | BANP BEN R320A (human) | BANP BEN S313A (human)

CTCTCGCGAGAG (double strand) [FAM-CGCG DNA]
binds more weakly: BEND6 BEN K265A (human) | BEND6 BEN N261A (human) | BEND6 BEN R254A (human)

Positions count from the first letter of the chain named. The comparison behind a weaker result is the experiment's own reference, which may not be listed here. Tags and fusion partners may be left off the protein sequences shown.
